Experimental data published in publication PMC9360443.

Chains of the proteins cited; added tags and fusions are not shown. Lines headed by an entry give the natural chain unless they say otherwise; changes in a name come on top.
UniProt Q9NR28: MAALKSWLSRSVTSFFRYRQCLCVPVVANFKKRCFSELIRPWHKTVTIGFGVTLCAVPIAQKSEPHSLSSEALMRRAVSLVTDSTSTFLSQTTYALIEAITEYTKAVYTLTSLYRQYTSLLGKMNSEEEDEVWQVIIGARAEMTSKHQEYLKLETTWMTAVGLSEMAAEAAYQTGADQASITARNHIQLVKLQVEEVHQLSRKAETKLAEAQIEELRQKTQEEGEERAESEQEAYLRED
UniProt O95835: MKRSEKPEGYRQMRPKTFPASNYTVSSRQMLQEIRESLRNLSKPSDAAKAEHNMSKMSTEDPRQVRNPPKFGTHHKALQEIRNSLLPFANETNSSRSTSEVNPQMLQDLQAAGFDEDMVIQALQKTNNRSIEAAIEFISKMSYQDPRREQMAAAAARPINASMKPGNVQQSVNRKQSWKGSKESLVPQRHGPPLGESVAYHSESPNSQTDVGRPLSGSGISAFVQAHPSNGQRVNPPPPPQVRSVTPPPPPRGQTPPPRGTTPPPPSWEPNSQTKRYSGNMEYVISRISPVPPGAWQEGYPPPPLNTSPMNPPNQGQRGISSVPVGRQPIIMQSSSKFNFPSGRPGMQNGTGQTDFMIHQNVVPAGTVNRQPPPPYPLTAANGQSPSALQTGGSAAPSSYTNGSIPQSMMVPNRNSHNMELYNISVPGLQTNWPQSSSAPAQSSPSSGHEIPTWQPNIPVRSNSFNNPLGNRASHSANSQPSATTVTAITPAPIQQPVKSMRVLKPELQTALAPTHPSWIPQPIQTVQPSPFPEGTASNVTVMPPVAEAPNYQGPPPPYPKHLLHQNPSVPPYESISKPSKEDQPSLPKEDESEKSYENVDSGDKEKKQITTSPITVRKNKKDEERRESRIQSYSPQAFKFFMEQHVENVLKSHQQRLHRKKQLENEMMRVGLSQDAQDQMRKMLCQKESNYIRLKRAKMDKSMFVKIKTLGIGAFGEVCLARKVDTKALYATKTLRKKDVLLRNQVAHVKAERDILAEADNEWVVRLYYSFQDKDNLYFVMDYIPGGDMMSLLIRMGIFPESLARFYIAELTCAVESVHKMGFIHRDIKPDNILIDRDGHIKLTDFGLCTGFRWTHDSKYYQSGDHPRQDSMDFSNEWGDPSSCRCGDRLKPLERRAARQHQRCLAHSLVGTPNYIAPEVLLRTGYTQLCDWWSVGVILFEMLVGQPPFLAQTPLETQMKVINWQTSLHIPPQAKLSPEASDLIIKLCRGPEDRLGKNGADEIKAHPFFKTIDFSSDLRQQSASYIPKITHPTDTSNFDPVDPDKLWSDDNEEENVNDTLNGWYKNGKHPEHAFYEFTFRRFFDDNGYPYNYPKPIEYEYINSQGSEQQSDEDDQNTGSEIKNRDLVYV
UniProt Q9NR09: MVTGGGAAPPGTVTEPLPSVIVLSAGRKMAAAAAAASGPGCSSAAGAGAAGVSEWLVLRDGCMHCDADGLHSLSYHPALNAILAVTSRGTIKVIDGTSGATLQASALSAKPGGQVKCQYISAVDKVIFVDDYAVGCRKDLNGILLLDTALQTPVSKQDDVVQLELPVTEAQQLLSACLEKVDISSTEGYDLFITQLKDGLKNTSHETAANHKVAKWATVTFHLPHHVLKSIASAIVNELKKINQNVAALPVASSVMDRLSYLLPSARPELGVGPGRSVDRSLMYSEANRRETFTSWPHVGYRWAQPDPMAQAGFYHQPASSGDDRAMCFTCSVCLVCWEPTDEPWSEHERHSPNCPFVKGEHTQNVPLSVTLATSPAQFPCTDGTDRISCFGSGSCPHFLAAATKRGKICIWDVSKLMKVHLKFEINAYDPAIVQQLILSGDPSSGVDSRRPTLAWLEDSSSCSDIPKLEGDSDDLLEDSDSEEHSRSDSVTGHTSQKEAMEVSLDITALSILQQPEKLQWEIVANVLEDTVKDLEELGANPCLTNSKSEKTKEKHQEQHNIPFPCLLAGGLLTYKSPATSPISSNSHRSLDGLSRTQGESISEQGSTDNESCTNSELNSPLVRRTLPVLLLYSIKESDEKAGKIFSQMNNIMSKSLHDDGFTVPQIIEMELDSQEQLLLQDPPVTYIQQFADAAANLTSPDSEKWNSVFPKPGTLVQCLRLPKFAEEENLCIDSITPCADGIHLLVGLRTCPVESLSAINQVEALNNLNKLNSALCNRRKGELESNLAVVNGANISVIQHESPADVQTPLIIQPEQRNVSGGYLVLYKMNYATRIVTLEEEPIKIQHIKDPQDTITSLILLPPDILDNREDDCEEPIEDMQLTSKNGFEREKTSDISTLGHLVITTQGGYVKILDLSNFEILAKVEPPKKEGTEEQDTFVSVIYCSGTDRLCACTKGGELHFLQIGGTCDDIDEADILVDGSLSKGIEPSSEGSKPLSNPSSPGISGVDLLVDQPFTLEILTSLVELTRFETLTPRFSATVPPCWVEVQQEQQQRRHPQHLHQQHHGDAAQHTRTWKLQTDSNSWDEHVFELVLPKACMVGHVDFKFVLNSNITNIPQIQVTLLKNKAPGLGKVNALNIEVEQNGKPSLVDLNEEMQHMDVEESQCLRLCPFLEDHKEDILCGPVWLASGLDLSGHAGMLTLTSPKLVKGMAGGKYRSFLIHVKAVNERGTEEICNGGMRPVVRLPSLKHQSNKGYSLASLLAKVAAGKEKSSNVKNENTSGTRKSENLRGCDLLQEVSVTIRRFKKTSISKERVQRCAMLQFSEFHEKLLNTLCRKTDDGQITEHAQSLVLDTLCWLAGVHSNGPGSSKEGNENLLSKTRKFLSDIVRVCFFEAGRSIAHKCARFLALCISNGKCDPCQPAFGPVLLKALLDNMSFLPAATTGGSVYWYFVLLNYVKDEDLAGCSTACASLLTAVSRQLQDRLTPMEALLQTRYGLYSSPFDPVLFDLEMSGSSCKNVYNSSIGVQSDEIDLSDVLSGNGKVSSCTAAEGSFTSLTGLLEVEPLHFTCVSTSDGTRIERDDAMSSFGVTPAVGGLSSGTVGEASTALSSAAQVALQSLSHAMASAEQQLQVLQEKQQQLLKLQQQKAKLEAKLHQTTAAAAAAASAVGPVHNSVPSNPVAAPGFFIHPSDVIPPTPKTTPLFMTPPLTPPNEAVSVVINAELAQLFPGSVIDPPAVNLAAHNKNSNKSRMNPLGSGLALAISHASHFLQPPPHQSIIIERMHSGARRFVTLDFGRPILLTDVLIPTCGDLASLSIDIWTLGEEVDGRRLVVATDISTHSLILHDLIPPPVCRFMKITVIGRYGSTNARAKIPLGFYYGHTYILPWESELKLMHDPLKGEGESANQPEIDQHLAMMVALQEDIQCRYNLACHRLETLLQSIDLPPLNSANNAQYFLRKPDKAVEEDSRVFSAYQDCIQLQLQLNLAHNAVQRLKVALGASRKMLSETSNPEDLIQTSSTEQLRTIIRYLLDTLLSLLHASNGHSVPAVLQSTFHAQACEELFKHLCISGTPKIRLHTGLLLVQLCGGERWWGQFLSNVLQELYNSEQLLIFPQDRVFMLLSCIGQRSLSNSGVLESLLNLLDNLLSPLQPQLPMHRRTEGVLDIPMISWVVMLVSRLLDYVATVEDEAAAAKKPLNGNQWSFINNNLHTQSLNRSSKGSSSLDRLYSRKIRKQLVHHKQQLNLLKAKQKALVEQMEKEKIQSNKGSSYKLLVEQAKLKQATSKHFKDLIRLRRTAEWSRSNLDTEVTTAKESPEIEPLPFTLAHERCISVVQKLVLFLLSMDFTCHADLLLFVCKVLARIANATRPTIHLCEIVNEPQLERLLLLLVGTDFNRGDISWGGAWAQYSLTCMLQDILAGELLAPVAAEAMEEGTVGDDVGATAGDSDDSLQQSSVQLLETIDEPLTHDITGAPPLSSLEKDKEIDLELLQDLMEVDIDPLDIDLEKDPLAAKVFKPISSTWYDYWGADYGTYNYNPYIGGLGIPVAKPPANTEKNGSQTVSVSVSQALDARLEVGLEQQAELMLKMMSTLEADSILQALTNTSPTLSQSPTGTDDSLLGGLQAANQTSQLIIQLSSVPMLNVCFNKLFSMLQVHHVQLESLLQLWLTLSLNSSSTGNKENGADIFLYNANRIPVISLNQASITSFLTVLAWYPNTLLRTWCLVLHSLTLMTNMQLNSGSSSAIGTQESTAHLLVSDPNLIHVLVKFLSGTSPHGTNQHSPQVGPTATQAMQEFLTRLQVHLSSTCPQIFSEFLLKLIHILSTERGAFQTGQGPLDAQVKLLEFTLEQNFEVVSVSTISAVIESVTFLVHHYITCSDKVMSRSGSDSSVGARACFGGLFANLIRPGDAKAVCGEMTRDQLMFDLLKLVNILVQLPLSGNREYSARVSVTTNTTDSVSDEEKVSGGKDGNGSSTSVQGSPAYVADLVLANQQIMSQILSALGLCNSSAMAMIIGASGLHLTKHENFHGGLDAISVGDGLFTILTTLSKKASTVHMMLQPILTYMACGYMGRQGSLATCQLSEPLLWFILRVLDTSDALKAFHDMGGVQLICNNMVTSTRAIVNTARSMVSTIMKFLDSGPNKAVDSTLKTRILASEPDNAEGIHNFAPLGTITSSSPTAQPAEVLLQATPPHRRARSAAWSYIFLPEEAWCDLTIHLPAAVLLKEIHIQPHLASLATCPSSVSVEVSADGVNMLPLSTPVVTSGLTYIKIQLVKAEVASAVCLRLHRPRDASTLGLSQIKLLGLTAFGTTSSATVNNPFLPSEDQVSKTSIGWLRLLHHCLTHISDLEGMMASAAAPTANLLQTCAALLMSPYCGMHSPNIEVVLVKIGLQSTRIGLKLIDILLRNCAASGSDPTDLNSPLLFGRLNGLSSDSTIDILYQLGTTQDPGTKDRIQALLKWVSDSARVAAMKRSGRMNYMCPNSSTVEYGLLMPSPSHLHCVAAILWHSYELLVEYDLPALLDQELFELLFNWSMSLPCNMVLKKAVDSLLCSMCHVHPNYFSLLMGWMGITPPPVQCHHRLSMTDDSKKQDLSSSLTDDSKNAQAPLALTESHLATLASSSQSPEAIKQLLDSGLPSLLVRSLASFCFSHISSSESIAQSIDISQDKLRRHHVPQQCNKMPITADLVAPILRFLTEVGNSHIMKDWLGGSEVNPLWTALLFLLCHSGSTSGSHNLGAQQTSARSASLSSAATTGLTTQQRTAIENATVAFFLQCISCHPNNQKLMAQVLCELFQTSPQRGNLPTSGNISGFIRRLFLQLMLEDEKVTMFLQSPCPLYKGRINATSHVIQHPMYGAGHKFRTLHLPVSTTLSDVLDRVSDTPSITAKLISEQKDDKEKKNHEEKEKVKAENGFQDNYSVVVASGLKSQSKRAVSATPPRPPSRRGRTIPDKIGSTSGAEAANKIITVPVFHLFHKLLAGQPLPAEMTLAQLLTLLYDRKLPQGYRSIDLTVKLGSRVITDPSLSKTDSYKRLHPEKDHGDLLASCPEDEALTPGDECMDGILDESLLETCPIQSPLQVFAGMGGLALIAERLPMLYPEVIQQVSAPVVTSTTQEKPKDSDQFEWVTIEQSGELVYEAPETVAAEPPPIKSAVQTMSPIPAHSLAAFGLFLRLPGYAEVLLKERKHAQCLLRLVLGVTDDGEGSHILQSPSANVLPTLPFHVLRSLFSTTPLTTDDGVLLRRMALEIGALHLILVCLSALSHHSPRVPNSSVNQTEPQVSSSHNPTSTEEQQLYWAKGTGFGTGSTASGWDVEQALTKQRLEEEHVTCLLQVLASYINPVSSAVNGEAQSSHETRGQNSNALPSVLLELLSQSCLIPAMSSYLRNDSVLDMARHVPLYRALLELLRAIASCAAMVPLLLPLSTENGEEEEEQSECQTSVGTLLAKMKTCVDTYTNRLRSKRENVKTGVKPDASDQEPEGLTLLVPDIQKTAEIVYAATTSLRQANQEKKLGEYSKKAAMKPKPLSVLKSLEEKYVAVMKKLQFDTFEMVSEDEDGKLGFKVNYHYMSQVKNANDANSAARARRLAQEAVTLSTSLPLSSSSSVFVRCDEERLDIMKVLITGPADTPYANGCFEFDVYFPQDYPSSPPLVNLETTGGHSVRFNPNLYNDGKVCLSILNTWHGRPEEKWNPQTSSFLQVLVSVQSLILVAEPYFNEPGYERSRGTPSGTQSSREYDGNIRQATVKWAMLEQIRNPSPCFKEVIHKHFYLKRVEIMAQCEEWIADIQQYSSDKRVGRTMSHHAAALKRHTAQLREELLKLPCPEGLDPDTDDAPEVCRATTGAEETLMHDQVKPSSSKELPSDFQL
UniProt O00165: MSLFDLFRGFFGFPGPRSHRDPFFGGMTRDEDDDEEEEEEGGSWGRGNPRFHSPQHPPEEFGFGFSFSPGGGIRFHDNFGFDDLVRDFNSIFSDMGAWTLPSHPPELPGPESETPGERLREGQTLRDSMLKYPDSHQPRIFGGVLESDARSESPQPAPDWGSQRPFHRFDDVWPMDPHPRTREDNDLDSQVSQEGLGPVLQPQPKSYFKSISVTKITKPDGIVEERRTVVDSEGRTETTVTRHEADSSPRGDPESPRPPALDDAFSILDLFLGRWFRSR

Experiments:
GFP-SMAC (human) [1] = molecular target: GFP-SMAC (human) (UniProt Q9NR28); experiment: affinity purification with mass spectrometry; as a12, the sample with FLAG-LATS1^KD co-expressed
GFP-SMAC (human) [2] = molecular target: GFP-SMAC (human) (UniProt Q9NR28); experiment: affinity purification with mass spectrometry; HEK293 cells (HeLa by the legend of Fig. 4) transfected with GFP-SMAC alone or with FLAG-LATS1^WT or FLAG-LATS1^KD, serum deprived; GFP-SMAC immunoprecipitated; on-bead trypsin digest, LFQ
FLAG-LATS1^WT (human) = FLAG-LATS1^WT (human) (UniProt O95835); experiment: affinity purification with mass spectrometry; A375 cells transfected with FLAG-LATS1 alone, with GFP-SMAC or with GFP-SMAC and RASSF1A, serum-deprived; FLAG-LATS1 as bait; on-bead trypsin digest, LFQ

Row | binding (GFP-SMAC (human) [2]) | binding (FLAG-LATS1^WT (human)) | Molecule | binding (GFP-SMAC (human) [1])
1 | binds |  | YAP (from UniProt P46937 1-504) | no binding (only with FLAG-LATS1^KD co-expressed)
2 | binds |  | BIRC6 (from UniProt Q9NR09 1-4857) | no binding (only with FLAG-LATS1^KD co-expressed)
3 |  | binds | HAX1 (from UniProt O00165 1-279) | 
4 |  | binds | XIAP (from UniProt P98170 1-497) | 
5 |  | binds | TRAF1 (protein, UniProt Q13077 1-416) MASSSGSSPRPAPDENEFPFGCPPTVCQDPKEPRALCCAGCLSENPRNGEDQICPKCRGEDLQSISPGSRLRTQEKAHPEVAEAGIGCPFAGVGCSFKGSPQSVQEHEVTSQTSHLNLLLGFMKQWKARLGCGLESGPMALEQNLSDLQLQAAVEVAGDLEVDCYRAPCSESQEELALQHFMKEKLLAELEGKLRVFENIVAVLNKEVEASHLALATSIHQSQLDRERILSLEQRVVELQQTLAQKDQALGKLEQSLRLMEEASFDGTFLWKITNVTRRCHESACGRTVSLFSPAFYTAKYGYKLCLRLYLNGDGTGKRTHLSLFIVIMRGEYDALLPWPFRNKVTFMLLDQNNREHAIDAFRPDLSSASFQRPQSETNVASGCPLFFPLSKLQSPKHAYVKDDTMFLKCIVETST | 
6 |  | binds | TAB3 (protein, UniProt Q8N5C8 1-712) MAQSSPQLDIQVLHDLRQRFPEIPEGVVSQCMLQNNNNLEACCRALSQESSKYLYMEYHSPDDNRMNRNRLLHINLGIHSPSSYHPGDGAQLNGGRTLVHSSSDGHIDPQHAAGKQLICLVQEPHSAPAVVAATPNYNPFFMNEQNRSAATPPSQPPQQPSSMQTGMNPSAMQGPSPPPPPPSYMHIPRYSTNPITVTVSQNLPSGQTVPRALQILPQIPSNLYGSPGSIYIRQTSQSSSGRQTPQSTPWQSSPQGPVPHYSQRPLPVYPHQQNYQPSQYSPKQQQIPQSAYHSPPPSQCPSPFSSPQHQVQPSQLGHIFMPPSPSTTPPHPYQQGPPSYQKQGSHSVAYLPYTASSLSKGSMKKIEITVEPSQRPGTAINRSPSPISNQPSPRNQHSLYTATTPPSSSPSRGISSQPKPPFSVNPVYITYTQPTGPSCTPSPSPRVIPNPTTVFKITVGRATTENLLNLVDQEERSAAPEPIQPISVIPGSGGEKGSHKYQRSSSSGSDDYAYTQALLLHQRARMERLAKQLKLEKEELERLKSEVNGMEHDLMQRRLRRVSCTTAIPTPEEMTRLRSMNRQLQINVDCTLKEVDLLQSRGNFDPKAMNNFYDNIEPGPVVPPKPSKKDSSDPCTIERKARRISVTSKVQADIHDTQAAAADEHRTGSTQSPRTQPRDEDYEGAPWNCDSCTFLNHPALNRCEQCEMPRYT | 
7 |  | binds | TAB1 (protein, UniProt Q15750 1-504) MAAQRRSLLQSEQQPSWTDDLPLCHLSGVGSASNRSYSADGKGTESHPPEDSWLKFRSENNCFLYGVFNGYDGNRVTNFVAQRLSAELLLGQLNAEHAEADVRRVLLQAFDVVERSFLESIDDALAEKASLQSQLPEGVPQHQLPPQYQKILERLKTLEREISGGAMAVVAVLLNNKLYVANVGTNRALLCKSTVDGLQVTQLNVDHTTENEDELFRLSQLGLDAGKIKQVGIICGQESTRRIGDYKVKYGYTDIDLLSAAKSKPIIAEPEIHGAQPLDGVTGFLVLMSEGLYKALEAAHGPGQANQEIAAMIDTEFAKQTSLDAVAQAVVDRVKRIHSDTFASGGERARFCPRHEDMTLLVRNFGYPLGEMSQPTPSPAPAAGGRVYPVSVPYSSAQSTSKTSVTLSLVMPSQGQMVNGAHSASTLDEATPTLTNQSPTLTLQSTNTHTQSSSSSSDGGLFRSRPAHSLPPGEDGRVEPYVDFAEFYRLWSVDHGEQSVVTAP | 

These are yes or no findings as the source states them, for the method shown. In cells and extracts the contact can be indirect. These calls come from enrichment with a bait or labelling near it, and not all partners need be listed. For part of these data: A no says only that the protein was not detected with the bait.
